For at least one compound, name, drawing or mass did not settle the structure.
Tested on: rats
Assay: Elevated plus maze (EPM) anxiety test in rats
Assay type: in vivo, rat
Excerpt: (ii) Animals—Young adult (240 g-290 g) male Sprague-Dawley rats (Charles River, USA or Harlan, Israel) were used in the experiments.
(v) Elevated […] Maze (EPM)—The purpose of the EPM is to determine the anxiolytic effects of tested drugs. The time that the experimental animals spend in the open arm of the maze is an indication for the anxiolytic effect, the longer the time the higher the anxiolytic effect. The EPM is a wooden, cross-shaped device, consisting of four arms arranged in the shape of a plus sign. Two of the arms have no side or end walls (open-arms; 30×5×0.25 cm). The other two arms have side walls and end walls, but are open on top (closed arms; 30×5×15 cm). The maze is elevated to a height of 50 cm. The animals are kept in a relatively dark box before exposure to the maze in order to increase their exploratory behavior. The tests were done in a silent environment under dim light. The animals were carried to the laboratory and left there undisturbed for 1 h before the experiment.
This test is used to assess anxiety. Rats were randomly assigned into five groups each containing 5 animals and then tested in an Elevated Plus Maze (EPM). […] The behavioral response to nicotine in the EPM was assessed 30 min after the first injection, and then again 30 minutes after the third injection.

COc1ccc2c3c1O[C@H]1C[C@@H](O)C=C[C@@]31CCN(C)C2 [galantamine]
anxiolytic effect (time in open arm) (nicotine 0.5 mg/kg together with opipramol 10 mg/kg or galantamine 5 mg/kg, second injection): the anxiolytic effect was seen in the second injection | anxiolytic effect (time in open arm) (nicotine 2 mg/kg together with opipramol 10 mg/kg or galantamine 5 mg/kg): not effective
